Results from PubChem BioAssay AID248 (DTP/NCI, 2004).
The list does not hold the whole screen: it gathers some chemical classes. Other doses and runs of a compound may be missing. T/C: endpoint of the treated group in % of that of the vehicle group. For survival time, the PubChem record calls one and a half times the control and up active, and a quarter to a half above the control has no call in these data; cut-offs in other NCI protocols can differ. Some T/C values are marked as having no survivor count here; that says nothing about deaths at the dose. Schedule codes are those of the source, read here as Q, the interval in days (D) or hours (H), X, the number of doses. Some entries hold several experiments; their values stand side by side, smallest first.

Tested on: L1210 leukemia ip in BDF1 mice, survival T/C
Test: NCI In Vivo Anticancer Drug Screen. Data for tumor model L1210 Leukemia (intraperitoneal) in B6D2F1 (BDF1) mice
Conditions: T/C endpoint: mean survival time, higher T/C = longer survival

For `CCCCP(=O)(Cl)N(CCCl)CCCl` (stereo not drawn), the T/C (dose: 50.0 mg/kg/injection, schedule: Q01DX001 (ip), vehicle: saline) was 100 % of control [survivor count not shown], the T/C (dose: 89.0 mg/kg/injection, schedule: Q01DX001 (ip), vehicle: saline) was 90 [survivor count not shown] and 114 % of control [survivor count not shown] and the T/C (dose: 100.0 mg/kg/injection, schedule: Q01DX001 (ip), vehicle: saline) was 111 % of control [survivor count not shown]. The T/C (dose: 133.0 mg/kg/injection, schedule: Q01DX001 (ip), vehicle: saline) was 95 [survivor count not shown] and 111 % of control [survivor count not shown], the T/C (dose: 200.0 mg/kg/injection, schedule: Q01DX001 (ip), vehicle: saline) was 105 [survivor count not shown], 122 [survivor count not shown], 134 % of control [survivor count not shown] and the T/C (dose: 300.0 mg/kg/injection, schedule: Q01DX001 (ip), vehicle: saline) was 118 [survivor count not shown] and 131 % of control [survivor count not shown]. For the same compound, the T/C (dose: 400.0 mg/kg/injection, schedule: Q01DX001 (ip), vehicle: saline) was 125 % of control [survivor count not shown].
In the case of `Cc1nc(-c2ccc(N(CCCl)CCCl)cc2)cs1`, the T/C (dose: 50.0 mg/kg/injection, schedule: Q01DX001 (ip), vehicle: carboxymethylcellulose (CMC)) is reported as 105 % of control [survivor count not shown], the T/C (dose: 100.0 mg/kg/injection, schedule: Q01DX001 (ip), vehicle: carboxymethylcellulose (CMC)) is reported as 97 % of control [survivor count not shown] and the T/C (dose: 200.0 mg/kg/injection, schedule: Q01DX001 (ip), vehicle: carboxymethylcellulose (CMC)) is reported as 97 % of control [survivor count not shown]. For the same compound, the T/C (dose: 400.0 mg/kg/injection, schedule: Q01DX001 (ip), vehicle: carboxymethylcellulose (CMC)) was 111 % of control [survivor count not shown].
In the case of `CCCCC1(N(CCCl)CCCl)C(=O)NC(=O)NC1=O`, the T/C (dose: 50.0 mg/kg/injection, schedule: Q04DX002 (ip), vehicle: saline) is reported as 117 % of control [survivor count not shown], the T/C (dose: 100.0 mg/kg/injection, schedule: Q04DX002 (ip), vehicle: saline) is reported as 104 [survivor count not shown] and 132 % of control [survivor count not shown] and the T/C (dose: 200.0 mg/kg/injection, schedule: Q04DX002 (ip), vehicle: saline) is reported as 111 [survivor count not shown] and 127 % of control [survivor count not shown]. For the same compound, the T/C (dose: 400.0 mg/kg/injection, schedule: Q04DX002 (ip), vehicle: saline) was 104 [survivor count not shown] and 139 % of control [survivor count not shown].
For `O=P(Cl)(Cl)CCBr`, the T/C (dose: 20.0 mg/kg/injection, schedule: Q01DX001 (ip), vehicle: Klucel (hydroxypropylcellulose) (HPC)) was 106 % of control [survivor count not shown], the T/C (dose: 20.0 mg/kg/injection, schedule: Q01DX009 (ip), vehicle: Klucel (hydroxypropylcellulose) (HPC)) was 100 % of control [survivor count not shown] and the T/C (dose: 20.0 mg/kg/injection, schedule: Q04DX003 (ip), vehicle: Klucel (hydroxypropylcellulose) (HPC)) was 104 % of control [survivor count not shown]. For the same compound, the T/C (dose: 40.0 mg/kg/injection, schedule: Q01DX001 (ip), vehicle: Klucel (hydroxypropylcellulose) (HPC)) was 101 % of control [survivor count not shown], the T/C (dose: 40.0 mg/kg/injection, schedule: Q01DX009 (ip), vehicle: Klucel (hydroxypropylcellulose) (HPC)) was 101 % of control [survivor count not shown] and the T/C (dose: 40.0 mg/kg/injection, schedule: Q04DX003 (ip), vehicle: Klucel (hydroxypropylcellulose) (HPC)) was 116 % of control [survivor count not shown]. For the same compound, the T/C (dose: 80.0 mg/kg/injection, schedule: Q01DX001 (ip), vehicle: Klucel (hydroxypropylcellulose) (HPC)) was 103 % of control [survivor count not shown], the T/C (dose: 80.0 mg/kg/injection, schedule: Q01DX009 (ip), vehicle: Klucel (hydroxypropylcellulose) (HPC)) was 94 % of control [survivor count not shown] and the T/C (dose: 80.0 mg/kg/injection, schedule: Q04DX003 (ip), vehicle: Klucel (hydroxypropylcellulose) (HPC)) was 106 % of control [survivor count not shown].
In the case of `CCCCCN(C)Cc1ncccc1OC(=O)N(C)C`, the T/C (dose: 0.78 mg/kg/injection, schedule: Q04DX003 (ip), vehicle: saline with Tween-80) is reported as 98 % of control [survivor count not shown] and the T/C (dose: 1.56 mg/kg/injection, schedule: Q04DX003 (ip), vehicle: saline with Tween-80) is reported as 89 % of control [survivor count not shown].
In the case of `CC1(C)NC(=O)N(CCN(CCCl)CCCl)C1=O`, the T/C (dose: 1.8 mg/kg/injection, schedule: Q01DX009 (ip), vehicle: saline) is reported as 109 % of control [survivor count not shown], the T/C (dose: 2.7 mg/kg/injection, schedule: Q01DX009 (ip), vehicle: saline) is reported as 120 % of control [survivor count not shown] and the T/C (dose: 3.12 mg/kg/injection, schedule: Q04DX003 (ip), vehicle: Klucel (hydroxypropylcellulose) (HPC)) is reported as 123 % of control [survivor count not shown]. For the same compound, the T/C (dose: 4.1 mg/kg/injection, schedule: Q04DX003 (ip), vehicle: Klucel (hydroxypropylcellulose) (HPC)) was 107 [survivor count not shown] and 137 % of control [survivor count not shown], the T/C (dose: 6.25 mg/kg/injection, schedule: Q04DX003 (ip), vehicle: Klucel (hydroxypropylcellulose) (HPC)) was 109 [survivor count not shown], 132 [survivor count not shown], 138 % of control [survivor count not shown] and the T/C (dose: 9.3 mg/kg/injection, schedule: Q04DX003 (ip), vehicle: Klucel (hydroxypropylcellulose) (HPC)) was 109 [survivor count not shown] and 132 % of control [survivor count not shown]. For the same compound, the T/C (dose: 12.5 mg/kg/injection, schedule: Q04DX003 (ip), vehicle: Klucel (hydroxypropylcellulose) (HPC)) was 104 % of control [survivor count not shown].
